From US20130309248A1
These are yes or no findings as the source states them, for the method shown. Some entries that bind do so weakly or less than the wild type.

Experiments:
[1] = biological target: H3 HA of A/Hong Kong/1/1968 on cells (influenza A virus (H3N2)) (UniProt Q91MA7); test: FACS, HA-expressing cells, mAb added after trypsin cleavage
[2] = biological target: H3 HA of A/Hong Kong/1/1968 on cells (influenza A virus (H3N2)) (UniProt Q91MA7); test: FACS, HA-expressing cells, mAb added after all treatments

B1: CR8041 (antibody, V domains shown)
VH: QVQLVQSGAEVKKPGASVKVSCQASGYTFTSFGLSWVRQAPGQGPEWMGWISAYNGEIKYAQKFQGRVSMTTDTSTRTAYMEVRSLRPDDTAVYYCAREPPLYFSSWSLDF
VL: EIVLTQSPGTLSLSPGERATLSCRASQSVSSNYLAWFQQKPGQAPRLLIYGASRRATGIPDRFSGSGSGTDFTLTISRLEPEDFAVYYCQQYDSSPRT
- binding [1]: binds
- binding [2]: binds
